Experimental data reported in patent publication US7323461B2, “Use of methylene blue and related compounds to prevent or reverse an exaggerated hemodynamic reaction” (Montreal Heart Institute, priority 2002, dated 2008).
Counter-ions that a name gives are not always drawn. At least one compound was matched to its structure with a doubt left.

Assay: Hemodynamic effects of methylene blue on hypotensive pigs (LCX artery occluded, sildenafil citrate plus nitroglycerin)
Type: in vivo
Settings: Pig #12, balloon occlusion; 100 mg sildenafil citrate, 0.2 mg nitroglycerin one hour later; compared with nitroglycerin alone
Experimental: Pigs weighing between 20 and 25 kg were anesthetized in accordance with the standard procedure of the Canadian Council on Animal Care Regulations. After baseline hemodynamic measurements, the left circumflex (LCX) artery was occluded using a catheter balloon so as to mimic the condition of patients with cardiovascular disease. As soon as the animal was stable, a bolus injection of nitroglycerin (0.2 mg) was given intravenously in order to observe the effect of nitroglycerin alone on the animal. The animal's blood pressure was allowed to return to normal, and the animal was given 100 mg of sildenafil citrate via an esophagus tube. One hour after the administration of sildenafil citrate, a bolus injection of 0.2 mg of nitroglycerin was given to the animal in order to observe the combined effect of […] and nitroglycerin on the animal. When the animal's blood pressure returned to normal, a second 0.2 mg bolus injection of nitroglycerin was given along with a bolus of MB (3 mg/kg). Blood pressure and heart rate were monitored throughout the procedure.

Compound: CCCc1nn(C)c2c(=O)[nH]c(-c3cc(S(=O)(=O)N4CCN(C)CC4)ccc3OCC)nc12 [sildenafil citrate]
- changes in time in systolic blood pressure, nitroglycerin added to sildenafil citrate without MB: pressure remains low as compared with the first curve
